“And” between values parts separate entries of the source, which are not always exact repeats. Equal values may be shown once.
Test: Amount of milk produced by warfarin-treated transgenic heifers
Type: in vivo, cattle
Settings: lines = day, warfarin started on day 1

## CC(=O)CC(c1ccccc1)c1c(O)c2ccccc2oc1=O (stereo not drawn) [warfarin]
Heifer 462
  Amount of milk: 12 lbs and 13 lbs and 9.5 lbs and 14 lbs and 13.5 lbs
Heifer 463
  Amount of milk: 4 lbs and 4.5 lbs and 5 lbs and 5.5 lbs and 6 lbs and 6.5 lbs
Heifer 474
  Amount of milk: 9.5 lbs and 8 lbs and 9 lbs and 7.5 lbs and 8.5 lbs

Reference: US9546381B2, “Use of anticoagulants in the production of recombinant proteins in the milk of transgenic animals” (priority 2010, dated 2017)
